{"source": "patent US12253513B2", "about": "“Methods and compositions for the selective lysis of blood cells and separation of microbial cells” (QVELLA CORPORATION, priority 2018, dated 2025)", "origin": "cited, not measured here", "note": "Some entries share one result that the patent states for a list of compounds. Some ranges recur; such a range may be that of the whole group of compounds."}
{"conditions": "isolated saponins; cited from earlier work", "units": {"dose causing hemolysis": "µg/mL"}}
{"substance": "QS-17", "dose causing hemolysis": "7 to 25"}
{"substance": "QS-18", "dose causing hemolysis": "7 to 25"}
{"substance": "QS-21", "dose causing hemolysis": "7 to 25"}
